Values of other authors in patent US6133299A, “Methods for treating neurodegenerative diseases and disorders using N-(2,6-disubstituted aromatic)-N'-pyridinyl ureas and other anticonvulsant compounds” (Warner-Lambert Company, priority 1993, dated 2000).

Test system: brain damage from global ischemia
Conditions: rabbits; cited from earlier work

SMILES: CCN(CC)CC(=O)Nc1c(C)cccc1C [Lidocaine, lidocaine]
- effect on brain damage from global ischemia: brain damage from global ischemia in rabbits is reduced
